The nature of this assay: qHTS Assay for Lipid Storage Modulators in Drosophila S3 Cells.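 On cell number change: cells counted by Cell Tracker Red CMTPX staining in the red channel.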 The settings on record: BODIPY lipid droplet fluorescence, 18-24 h; for cell number change: measured here: cell count max response, cells fed with added oleic acid. The gist of the method: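 Drosophila S3 cells got compounds at several concentrations plus oleic acid (400 uM solution). Laser-scanning cytometry with 488 nm excitation read lipid droplets at 500-530 nm and cells at 575-640 nm. Percent activity was relative to 20 uM Triacsin C.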

Where [1] appears, read: measured here: lipid fluorescence (Fed channel) AC50, cells fed with added oleic acid.
Where [2] appears, read: measured here: cell number channel AC50, cells fed with added oleic acid.

This note sets out measurements from PubChem BioAssay AID2685 (National Center for Advancing Translational Sciences (NCATS), 2010).

This is one part of the list. Further columns of the screen follow, without active or inactive calls. Most of these compounds were active or inconclusive in the main read-out, so they are no random draw. The note in brackets gives the kind of curve behind each potency; many fits are weak.

Turning to `COc1ccc(NC(=O)CN(C)C(=O)/C=C/c2ccc(OCc3ccccc3)cc2)cc1`, the AC50 under setting [1] is 0.631 µM [falling, full curve, poor fit].
`O=c1c2ccccc2oc2cc(-c3ccc(CN4CCOCC4)cc3)ccc12`: the cell number change was -6.27%. Further, the AC50 under setting [1] is 7.31 µM [falling, single point].
With `CCOc1ccc2[nH]c3c(NCCCOC)ncnc3c2c1`, the cell number change is -54.3%. For the same molecule, under setting [2], the concentration at half-maximal activity (AC50) was 20.6 µM [falling, partial curve]. Under setting [1], the AC50 is 32.6 µM [falling, partial curve].
As for `O=c1[nH]nc(CSCc2ccccc2Cl)[nH]1`, the concentration at half-maximal activity (AC50) was 6.51 µM [falling, partial curve, poor fit] under setting [2] and 0.651 µM [falling, full curve] under setting [1].
On to `O=C(COc1ccc2ccc(=O)oc2c1)N1CCc2ccccc21`, for which the AC50 was 0.517 µM [falling, single point] under setting [2] and 6.51 µM [falling, single point] under setting [1].
As for `CCCCN(CCCNC(=O)c1c(C)cc(=O)oc1C)c1ccccc1`, the cell number change was 114%. Also, under setting [2], the concentration at half-maximal activity (AC50) is 16.4 µM [rising, single point].
On to `COCCN(C(=O)CSc1ncn[nH]1)c1c(N)n(Cc2ccccc2)c(=O)[nH]c1=O`, for which the cell number change is -11.3%. Moreover, under setting [1], the AC50 is 16.4 µM [falling, partial curve].
Regarding `CN(C)S(=O)(=O)c1ccc(Cl)c(C(=O)Nc2ccc(S(=O)(=O)N3CCOCC3)cc2)c1`, the cell number change amounted to 1.67%. In addition, the AC50 under setting [1] was 5.17 µM [falling, single point].
Take `CSc1nc(C(C)C)ccc1CNC(=O)CC(C)c1ccccc1` (configuration not stated): the cell number change was -4.17%. In addition, the AC50 under setting [1] was 6.51 µM [rising, single point].
As for `CC(C)OC(=O)NCCOC(=O)Nc1ccc(Cl)cc1`, the cell number change worked out at 5.37%.
With `CCOC(=O)CC(=O)c1[nH]c(C)c(C(=O)OCC)c1C`, the cell number change is 49.7%. Besides, the AC50 under setting [2] is 0.651 µM [rising, full curve]. Also, under setting [1], the half-maximal activity concentration (AC50) is 0.651 µM [rising, full curve].
In the case of `CC(=O)Nc1ccc(C(=S)NCC2(N(C)C)CCCCC2)cc1`, the cell number change was determined as 24.6%. Moreover, under setting [2], the concentration at half-maximal activity (AC50) is 0.0366 µM [rising, single point].
In the case of `CCOC(=O)N1CCN(c2nc(=S)n(-c3ccccc3)c(C)c2C(C)=O)CC1`, the cell number change was 8.12%. Moreover, the AC50 under setting [1] is 6.51 µM [rising, single point].
Take `Cc1cc(C)c(S(=O)(=O)N2CCCOC2CNC(=O)C(=O)NCc2ccncc2)c(C)c1` (configuration not stated): the cell number change is -12.5%. Moreover, the AC50 under setting [1] is 0.146 µM [falling, full curve, poor fit].
Take `BrC(=C\c1ccccc1)/C=N/n1cnnc1`: the concentration at half-maximal activity (AC50) under setting [2] is 3.66 µM [rising, partial curve, poor fit].
With `Cc1cc(NC(=O)c2ccc(Br)o2)ccc1NC(=O)c1ccco1`, the cell number change worked out at 6.09%. For the same molecule, under setting [1], the AC50 is 29.1 µM [rising, single point].
Regarding `COC(=O)CC1C(=O)NCCN1C(=O)Nc1cccc(Cl)c1` (configuration not stated), the cell number change was found to be 8.92%. The AC50 under setting [1] was 29.1 µM [rising, single point].
Regarding `COCCn1c(SCC(=O)N2CCCC2)nnc1-c1ccoc1C`, the cell number change was -46.4%. In addition, the AC50 under setting [2] was 16.4 µM [falling, single point]. Further, under setting [1], the AC50 was 4.61 µM [falling, full curve, poor fit].
With `O=C(COc1ccccc1Cl)Nc1ccc2c(c1)OCCO2`, the cell number change came out at 16.9%. Besides, the AC50 under setting [1] was 6.51 µM [falling, single point].
For `CCOc1ccccc1/C=N/NC(=O)CNC(=O)COc1ccccc1`, the cell number change is 29.5%. In addition, the AC50 under setting [1] was 32.6 µM [rising, single point].
Take `Cc1ccc2c(c1)N(CC(=O)Nc1ncccc1C)C(=O)C(C(C)C)O2` (configuration not stated): under setting [1], the AC50 was 0.259 µM [falling, full curve, poor fit].
For the molecule `O=C(CCc1ccccc1)NNC(=O)c1ccccc1Br`, the cell number change is -52.8%. Under setting [2], the AC50 is 0.00461 µM [falling, full curve, poor fit].
As for `CC1Cc2ccccc2N1S(=O)(=O)c1cccc(C(=O)NNC(=O)c2ccccc2F)c1` (configuration not stated), the cell number change was -14.5%. Moreover, the AC50 under setting [1] is 0.326 µM [rising, full curve, poor fit].
Regarding `Cc1ccccc1C(=O)Nc1cc(C(F)(F)F)ccc1-n1cncn1`, the cell number change is -51.9%. Also, under setting [2], the AC50 was 29.1 µM [falling, single point]. For the same molecule, the AC50 under setting [1] was 20.6 µM [falling, single point].
In the case of `C=C(C)CN=C1SC(C(=O)Nc2sc3c(c2C(=O)OC)CCC3)C(N)=C1C(N)=O` (configuration not stated), the cell number change was -30.3%. Besides, the AC50 under setting [2] is 32.6 µM [falling, single point].
As for `CC(C)N(C(=O)CSc1nn2c(=O)c(C(C)(C)C)nnc2s1)c1ccccc1`, the cell number change was determined as 69.3%. In addition, the AC50 under setting [2] was 18.4 µM [rising, partial curve].
Turning to `O=C(C1=C(O)/C(=C/c2ccc(O)cc2)CCC1)C(F)(F)F`, the cell number change is -59.9%. For the same molecule, the AC50 under setting [2] was 23.1 µM [falling, single point]. Moreover, the AC50 under setting [1] was 18.4 µM [falling, single point].
Turning to `O=C(NN1CCOCC1)c1ccc(Cl)cc1[N+](=O)[O-]`, the cell number change was found to be 44.6%. Also, the AC50 under setting [2] is 8.2 µM [rising, partial curve]. Under setting [1], the AC50 was 6.51 µM [rising, partial curve].
With `O=C(CSc1nnc(COc2ccc(Cl)cc2)o1)OC1CCCCC1`, the cell number change was -98.3%. Moreover, the AC50 under setting [2] was 32.6 µM [falling, partial curve]. Under setting [1], the half-maximal activity concentration (AC50) is 29.1 µM [falling, single point].
For the molecule `COc1ccc(CCNC(=O)CSc2ncnc3c2oc2ccccc23)cc1OC`, the cell number change is 0.149%. For the same molecule, under setting [1], the AC50 was 0.651 µM [falling, full curve, poor fit].
With `COc1ccccc1C(=O)Nc1sc2c(c1C(=O)NCc1ccco1)CCCC2`, the AC50 under setting [2] is 0.13 µM [rising, full curve, poor fit].
With `Nc1c2c(nc3ccn(Cc4ccccc4)c(=O)c13)CCC2`, the cell number change is 33.9%. The half-maximal activity concentration (AC50) under setting [2] is 20.6 µM [rising, single point]. Under setting [1], the AC50 is 4.11 µM [rising, single point].
Regarding `Cc1cc(N2C(=O)C3CCC(c4ccccc4)CC3C2=O)no1` (configuration not stated), the cell number change turned out to be 8.05%. Moreover, the AC50 under setting [1] is 7.94 µM [rising, partial curve].
For the molecule `COC(=O)c1sc2ccccc2c1-n1cccc1C(=O)C(=O)Nc1ccc(OC)cc1`, the cell number change was 22.7%. The AC50 under setting [1] was 0.366 µM [rising, full curve].
For `CCOCCCN(C)C1CCN(C(=O)c2oc3ccccc3c2NC(=O)Cc2ccc(F)cc2)CC1`, the cell number change came to 4.78%. The AC50 under setting [2] was 0.731 µM [rising, single point].
As for `Cc1ccc(CNc2ccccc2C(=O)O)s1`, the cell number change is -2.89%. Moreover, under setting [1], the AC50 was 25.9 µM [rising, single point].
For the molecule `O=C(O)C1=C[C@H](c2csc3ccccc23)C[C@H](OCCCCO)O1`, the cell number change came to 0.877%. Besides, under setting [1], the AC50 was 5.8 µM [rising, single point].
As for `COc1ccc(-n2sc3c(c2=S)-c2cc(OC)ccc2NC3(C)C)cc1`, the cell number change was -140%.
Same read-out and setting: with `Cc1cc(OC(=O)c2ccc(F)cc2)c([N+](=O)[O-])c(=O)[nH]1` the figure was -16.5%.
`Cc1ccc(Nc2c(-c3ccc(N4CCOCC4)cc3)nc3ncccn23)c(C)c1`: the cell number change was -2.15%. Further, the half-maximal activity concentration (AC50) under setting [1] was 11.6 µM [rising, partial curve].
Turning to `CCn1cc(CNC(=O)c2ccc(OC3CCN(Cc4ccccn4)CC3)cc2)cn1`, under setting [1], the AC50 was 29.1 µM [falling, single point].
Consider `Cc1cc(C)nc(SCc2ccc(C(=O)NNC(=O)Nc3cccc(Cl)c3)cc2)n1`, for which the AC50 reads like this: under setting [2], 0.731 µM [rising, single point]; under setting [1], 29.1 µM [rising, single point].
Regarding `CCC1CCCCN1CCCNC(=O)Cn1ncc2c(C)n(Cc3ccccc3Cl)c(C)c2c1=O` (configuration not stated), the cell number change amounted to 8.65%.
On to `N#Cc1nc(-c2ccc(OCc3ccc(Cl)cc3)cc2)oc1NCCCn1ccnc1`, for which the cell number change is -5.7%.
Turning to `CCC(Oc1ccccc1)C(=O)OCC(=O)Nc1sccc1C(N)=O` (configuration not stated), the cell number change stood at 30.9%. The AC50 under setting [2] is 18.4 µM [rising, single point]. Further, the AC50 under setting [1] is 14.6 µM [rising, partial curve].
As for `COc1cccc2c1C(=O)c1ccc3ccccc3c1C2=O`, the cell number change is 105%. Also, the AC50 under setting [2] is 3.66 µM [rising, full curve]. Besides, the AC50 under setting [1] is 3.66 µM [rising, full curve].
`CCc1nnc(NC(=O)c2oc3cc(C)c(C)cc3c2C)s1`: the cell number change was found to be 9.89%. Under setting [1], the concentration at half-maximal activity (AC50) was 2.31 µM [rising, single point].
In the case of `O=C(Nc1ccccc1-c1nnn(CC(=O)N2CCN(c3ccccc3)CC2)n1)c1cccs1`, the cell number change amounted to 7.78%. Further, the AC50 under setting [1] is 1.64 µM [rising, partial curve].
Turning to `Cc1ccc(N(C(=O)C(F)(F)F)C(C(=O)NC2CCCCC2)c2cccs2)cc1` (configuration not stated), the cell number change is 24.4%. Moreover, the AC50 under setting [1] was 29.1 µM [rising, single point].
With `COc1cc(C(=O)NCc2nnc(SCC(=O)N3CCCC3)o2)cc(OC)c1OC`, the cell number change is -6.23%.
As for `Cc1[nH]c(=O)cc2ccccc12`, the cell number change turned out to be 9.05%. Besides, the AC50 under setting [1] is 5.17 µM [falling, single point].
For `CCn1c(SCC(=O)Nc2nccs2)nnc1-c1ccccn1`, the cell number change is -9.68%. Moreover, the AC50 under setting [1] is 0.0058 µM [falling, full curve, poor fit].
With `COc1cc(NC(=O)CSc2nnc(Cn3nnc4ccccc43)n2C)cc(OC)c1`, the cell number change is -25.8%. In addition, the AC50 under setting [1] was 18.4 µM [falling, single point].
In the case of `COc1ccc(NC(=S)N(CCCN2CCCC2)Cc2cccs2)cc1`, the cell number change was 15.9%. The AC50 under setting [1] was 0.0651 µM [falling, full curve].
For the molecule `O=C(COc1ccccc1)NCCS(=O)(=O)N1CCN(c2ccccc2)CC1`, the cell number change is 72.1%. Also, the AC50 under setting [2] was 16.4 µM [rising, partial curve].
`COc1cc(C2NC(=O)NC(C)=C2C(=O)OCc2ccccc2)ccc1O` (configuration not stated): the cell number change is -22.3%.
As to `CC(C)(CNS(=O)(=O)c1ccc2ccccc2c1)N1CCOCC1`, the cell number change was 5%.
In the case of `CC12CCC(=O)N1C(C(=O)Nc1nnc(SCc3ccccc3F)s1)CS2` (configuration not stated), the cell number change was -11.4%. Also, the AC50 under setting [1] is 16.4 µM [falling, single point].
For `CCOC(=O)N1CCN(c2c(N3CCN(c4ccccc4F)CC3)c(=O)c2=O)CC1`, the cell number change came to 11.8%. Besides, the AC50 under setting [1] was 0.103 µM [rising, full curve, poor fit].
With `CCOc1ccccc1C(=O)Nc1ccc(-n2nncc2C(C)(C)C)cc1`, the cell number change came out at 19.9%. For the same molecule, the AC50 under setting [2] is 1.64 µM [rising, partial curve, poor fit].
